Test results taken from article PMC12527946.
Results are given in words; binding and its absence hold for the method and conditions named. A result given as binding can be weak or reduced; the word gives no strength.

Biological target: VLDLR(28–797)Δ(751–779)-C-tag (VLDLR ectodomain) (human) (UniProt P98155)
Test: ELISA; plate coated with 10 µg/ml VLDLR-ed; Clu or RAP in TBS-C pH 7.4, 2 mM CaCl2, 2% BSA, 0.05% Tween-20, 1 h at room temperature; background binding to BSA subtracted; one-site specific binding fit; both purified

binding: binds
Substance: Clu mutant CC4 (from UniProt P10909 23-227; P10909 228-449)
